Measured values published in patent US20240029824A1 (University of Washington, published 2024).
These are yes or no findings as the source states them, for the method shown. Some entries that bind do so weakly or less than the wild type. Values belong to the binder of their own block, whether it stands above or below them.

What was measured:
[1] = biological target: T1, DHT03 chain B; assay: native MS; loop-connectivity variant of DHT03, chains of one ABCD heterotetramer
T1 sequence: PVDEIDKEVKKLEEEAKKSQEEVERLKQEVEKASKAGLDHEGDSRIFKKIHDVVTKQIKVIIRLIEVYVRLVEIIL

[2] = biological target: T2, DHT03_variant_AB-5 chain A; assay: as above
T2 sequence: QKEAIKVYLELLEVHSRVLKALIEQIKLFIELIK

[3] = biological target: T1, DHT03 chain B; assay: X-ray crystal structure, 2.35 A
[4] = biological target: T3, DHT03 chain C; assay: X-ray crystal structure, 2.35 A
T3 sequence: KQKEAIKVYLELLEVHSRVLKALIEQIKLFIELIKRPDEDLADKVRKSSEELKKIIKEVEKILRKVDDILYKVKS

[5] = biological target: T1, DHT03 chain B; assay: co-expression, IMAC, SEC, native MS; chains of one ABC heterotrimer
[6] = biological target: T3, DHT03 chain C; assay: as above
[7] = biological target: T4, DHT03_1arm_A/B21/C chain B; assay: tricistronic expression, SEC, native MS; chains of one ABC heterotrimer
T4 sequence: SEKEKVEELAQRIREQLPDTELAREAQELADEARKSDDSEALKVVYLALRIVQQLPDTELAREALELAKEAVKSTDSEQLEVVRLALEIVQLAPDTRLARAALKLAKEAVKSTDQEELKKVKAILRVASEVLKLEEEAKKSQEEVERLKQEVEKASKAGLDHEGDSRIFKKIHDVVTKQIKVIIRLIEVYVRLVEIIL

[8] = biological target: T5, DHT03 chain B (SEQ ID NO: 55); assay: X-ray crystal structure, 3.35 A
T5 sequence: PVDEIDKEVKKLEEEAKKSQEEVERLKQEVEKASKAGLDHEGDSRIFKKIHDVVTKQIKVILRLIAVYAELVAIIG

[9] = biological target: T3, DHT03 chain C; assay: X-ray crystal structure, 3.35 A
[10] = biological target: T5, DHT03 chain B (SEQ ID NO: 55); assay: tricistronic expression, SEC, native MS; chains of one ABC heterotrimer
[11] = biological target: T3, DHT03 chain C; assay: as above
[12] = biological target: T6, DHT05_1arm_A/B/C62 chain C; assay: SEC and SAXS; chains of one ABC heterotrimer
T6 sequence: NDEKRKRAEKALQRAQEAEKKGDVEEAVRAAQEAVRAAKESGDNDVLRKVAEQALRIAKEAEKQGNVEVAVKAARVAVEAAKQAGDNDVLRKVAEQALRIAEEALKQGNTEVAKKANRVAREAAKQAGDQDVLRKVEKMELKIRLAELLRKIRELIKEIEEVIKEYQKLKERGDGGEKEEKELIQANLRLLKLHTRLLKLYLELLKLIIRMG

[13] = biological target: T7, DHT05 chain C; assay: co-expression, IMAC, SEC, native MS; chains of one ABC heterotrimer
T7 sequence: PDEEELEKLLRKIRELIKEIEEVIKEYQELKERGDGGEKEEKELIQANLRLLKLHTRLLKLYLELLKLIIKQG

[14] = biological target: T8, DHT03 chain C (SEQ ID NO: 59); assay: tricistronic expression, SEC, native MS; chains of one ABC heterotrimer
T8 sequence: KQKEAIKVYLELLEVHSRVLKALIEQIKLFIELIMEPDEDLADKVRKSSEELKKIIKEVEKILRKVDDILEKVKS

[15] = biological target: T9, DHT03_variant_AB-5 chain B; assay: native MS; loop-connectivity variant of DHT03, AB heterodimer
T9 sequence: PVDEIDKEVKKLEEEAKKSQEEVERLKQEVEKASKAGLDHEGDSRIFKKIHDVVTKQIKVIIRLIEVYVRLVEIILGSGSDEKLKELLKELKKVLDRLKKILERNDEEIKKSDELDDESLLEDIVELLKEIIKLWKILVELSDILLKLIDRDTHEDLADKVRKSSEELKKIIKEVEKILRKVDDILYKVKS

[16] = biological target: T10, DHT03_variant_ABCD-1 chain D; assay: native MS; loop-connectivity variant of DHT03, chains of one ABCD heterotetramer
T10 chain: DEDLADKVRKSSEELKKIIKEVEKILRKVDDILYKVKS

[17] = biological target: T11, DHT05 chain B; assay: co-expression, IMAC, SEC, native MS; chains of one ABC heterotrimer
T11 sequence: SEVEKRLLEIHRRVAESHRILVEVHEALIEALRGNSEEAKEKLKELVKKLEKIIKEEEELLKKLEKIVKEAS

[18] = biological target: T12, DHT05_2arm_A62/B14(2)-LHD101B14/C chain B; assay: co-expression, SEC, SAXS; chains of one ABC heterotrimer
T12 sequence: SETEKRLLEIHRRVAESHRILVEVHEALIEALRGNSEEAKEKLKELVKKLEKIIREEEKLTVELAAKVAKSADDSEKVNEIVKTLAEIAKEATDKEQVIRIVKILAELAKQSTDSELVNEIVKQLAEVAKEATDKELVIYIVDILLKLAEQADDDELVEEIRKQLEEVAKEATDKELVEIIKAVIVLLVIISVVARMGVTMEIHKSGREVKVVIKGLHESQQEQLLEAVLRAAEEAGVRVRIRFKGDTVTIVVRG

[19] = biological target: T13, DHT05 chain C (SEQ ID NO: 98); assay: as above
T13 sequence: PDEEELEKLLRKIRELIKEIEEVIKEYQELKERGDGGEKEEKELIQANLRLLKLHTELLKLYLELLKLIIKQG

[20] = biological target: T14, DHT05 chain C (SEQ ID NO: 95); assay: SEC and SAXS; chains of one ABC heterotrimer
T14 sequence: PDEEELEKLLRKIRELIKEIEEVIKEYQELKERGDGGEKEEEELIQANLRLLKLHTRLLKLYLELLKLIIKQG

[21] = biological target: T15, DHT05 chain B (SEQ ID NO: 88); assay: SEC and SAXS; chains of one ABC heterotrimer
T15 sequence: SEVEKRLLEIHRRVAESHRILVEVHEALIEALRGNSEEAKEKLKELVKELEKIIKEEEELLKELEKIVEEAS

[22] = biological target: T16, DHT05_2arm_A62/B14/C chain B; assay: SEC and SAXS; chains of one ABC heterotrimer
T16 sequence: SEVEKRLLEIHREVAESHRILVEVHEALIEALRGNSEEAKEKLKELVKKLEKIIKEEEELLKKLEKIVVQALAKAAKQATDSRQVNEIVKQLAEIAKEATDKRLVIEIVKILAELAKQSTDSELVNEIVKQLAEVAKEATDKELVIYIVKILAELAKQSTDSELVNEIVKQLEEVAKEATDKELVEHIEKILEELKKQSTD

[23] = biological target: T17, DHT05 chain C (SEQ ID NO: 89); assay: SEC and SAXS; chains of one ABC heterotrimer
T17 sequence: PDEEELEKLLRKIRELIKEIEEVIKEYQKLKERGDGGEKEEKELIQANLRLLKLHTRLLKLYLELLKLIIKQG

B2: DHT03_1arm_A21/B/C chain A (designed binder)
chain: SEKEKVEELAQRIREQLPDTELAREAQELADEARKSDDSEALKVVYLALRIVQQLPDTELAREALELAKEAVKSTDSEALKVVYLALRIVQQLPDTELARLALELAKKAVEMTAQEVLEIARAALKAAQAFPNTELAELMLRLAEVAARVMKELERNDEEIKKSDELDDESLLEDIVELLKEIIKLWKILVEVSDVMLKLIS
- binding [8]: binds
- binding [9]: binds
- binding [10]: binds
- binding [11]: binds

B4: DHT05 chain B (designed binder)
chain: SEVEKRLLEIHRRVAESHRILVEVHEALIEALRGNSEEAKEKLKELVKKLEKIIKEEEELLKKLEKIVKEAS
- binding [13]: binds

B5: DHT03_1arm_A/B21/C chain B (designed binder)
chain: SEKEKVEELAQRIREQLPDTELAREAQELADEARKSDDSEALKVVYLALRIVQQLPDTELAREALELAKEAVKSTDSEQLEVVRLALEIVQLAPDTRLARAALKLAKEAVKSTDQEELKKVKAILRVASEVLKLEEEAKKSQEEVERLKQEVEKASKAGLDHEGDSRIFKKIHDVVTKQIKVIIRLIEVYVRLVEIIL
- binding [14]: binds

B6: DHT03_variant_AB-5 chain A (designed binder)
chain: QKEAIKVYLELLEVHSRVLKALIEQIKLFIELIK
- binding [15]: binds
- binding [16]: binds

B9: DHT03 chain B (designed binder)
chain: PVDEIDKEVKKLEEEAKKSQEEVERLKQEVEKASKAGLDHEGDSRIFKKIHDVVTKQIKVIIRLIEVYVRLVEIIL
- binding [2]: binds
- binding [4]: binds
- binding [6]: binds
- binding [16]: binds

B10: DHT03 chain B (SEQ ID NO: 55) (designed binder)
chain: PVDEIDKEVKKLEEEAKKSQEEVERLKQEVEKASKAGLDHEGDSRIFKKIHDVVTKQIKVILRLIAVYAELVAIIG
- binding [9]: binds
- binding [11]: binds

Next, values leading:

- binding [1]: binds
- binding [2]: binds
- binding [3]: binds
- binding [4]: binds
- binding [5]: binds
- binding [6]: binds
- binding [7]: binds
B1: DHT03 chain A (designed binder)
chain: PEEEKLKELLKELKKVLDRLKKILERNDEEIKKSDELDDESLLEDIVELLKEIIKLWKILVELSDILLKLIS

- binding [12]: binds
B3: DHT05 chain B (SEQ ID NO: 88) (designed binder)
chain: SEVEKRLLEIHRRVAESHRILVEVHEALIEALRGNSEEAKEKLKELVKELEKIIKEEEELLKELEKIVEEAS

- binding [17]: binds
- binding [13]: binds
- binding [12]: binds
B7: DHT05 chain A (designed binder)
chain: PEEKKEIKRTTEEVKEEFRKIQEEIKKLEEEAKKAEKGNGKEEIKELLLRLSELLARSLQLLAQQIEAIAKLIRG

- binding [18]: binds
- binding [19]: binds
- binding [20]: binds
- binding [21]: binds
- binding [22]: binds
- binding [23]: binds
B8: DHT05_1arm_A62/B/C chain A (designed binder)
chain: NDEKRKRAEKALQRAQEAEKKGDVEEAVRAAQEAVRAAKESGDNDVLRKVAEQALRIAKEAEKQGNVEVAVKAARVAVEAAKQAGDNDVLRKVAEQALRIAKEAEKQGNVKVAADAVKVAVEAATQAGDQDVLRKASEQAKKVAKEAKKKGDHKVAVKATTLAVKAEFAAIQEEIKKLEEEAKKAEKGNGKEEIKELLLRLSELLARSLQLLAQQIEAIAKLIRG
